Taken from: PubChem BioAssay AID493246 (Drosophila RNAi Screening Center, 2011)
Screen: 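Genome-wide search for dsRNAs that reduce cell number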 (primary screen). System: Drosophila Kc and S2R+ cells. Reagent: long dsRNA against Drosophila genes. Measured: 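Cell number per well after knock-down, printed as raw plate values; calls were based on per-plate z-scores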. Scale: Kc cell number and S2R+ cell number: higher = more cells remaining. Active means: 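Active when the per-plate z-score of cell number is 3 or more in the direction of fewer cells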.
The deposit covers about 21,000 reagents; shown is an unselected part of those that have a named target and a result. Of all reagents, 429 (2%) were called active. 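Values are raw and not normalised between plates; calls rest on per-plate z-scores that were not deposited.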 Names joined by + are all predicted targets of the reagent. No sequences are given here. Not given: the amount of reagent, the time to read-out.

gene | DRSC id | Kc cell number, rep 1 | Kc cell number, rep 2 | S2R+ cell number, rep 1 | S2R+ cell number, rep 2 | call
CG4928 | DRSC19342 | 1.45e6 | 1.55e6 | 1.02e6 | 1.13e6 | inactive
Pglym87 | DRSC15252 | 1.54e6 | 1.56e6 | 1.19e6 | 1.25e6 | inactive
CG13130 (retired record) | DRSC02226 | 1.58e6 | 1.56e6 | 1.09e6 | 1.24e6 | inactive
Him | DRSC19638 | 1.45e6 | 1.43e6 | 1.06e6 | 1.13e6 | inactive
loqs | DRSC02997 | 1.55e6 | 1.61e6 | 1.16e6 | 1.31e6 | inactive
CG14342 | DRSC00372 | 1.52e6 | 1.56e6 | 1.01e6 | 1.21e6 | inactive
CG15160 | DRSC02461 | 1.75e6 | 1.78e6 | 1.19e6 | 2.11e5 | inactive
spt4 | DRSC07696 | 1.72e6 | 1.70e6 | 1.02e6 | 1.13e6 | inactive

Reformatted: 2 of the entries above.
{"gene":"CG14342","DRSC id":"DRSC00372","Kc cell number, rep 1":1.52e6,"Kc cell number, rep 2":1.56e6,"S2R+ cell number, rep 1":1.01e6,"S2R+ cell number, rep 2":1.21e6,"call":"inactive"}
{"gene":"CG15160","DRSC id":"DRSC02461","Kc cell number, rep 1":1.75e6,"Kc cell number, rep 2":1.78e6,"S2R+ cell number, rep 1":1.19e6,"S2R+ cell number, rep 2":2.11e5,"call":"inactive"}

Continued:
gene | DRSC id | Kc cell number, rep 1 | Kc cell number, rep 2 | S2R+ cell number, rep 1 | S2R+ cell number, rep 2 | call
CG9706 | DRSC11095 | 1.51e6 | 1.56e6 | 1.18e6 | 1.20e6 | inactive
RpS27 | DRSC14244 | 1.19e6 | 1.14e6 | 7.82e5 | 9.04e5 | inactive
rho-6 | DRSC02588 | 1.53e6 | 1.64e6 | 1.25e6 | 1.31e6 | inactive
BaraA1 + BaraA2 | DRSC05417 | 1.47e6 | 1.43e6 | 9.74e5 | 1.12e6 | inactive
CSN6 | DRSC16593 | 1.61e6 | 1.59e6 | 7.91e5 | 9.07e5 | inactive
Alp1 | DRSC11781 | 1.48e6 | 1.57e6 | 1.20e6 | 1.29e6 | inactive
Prp18 | DRSC16802 | 1.54e6 | 1.65e6 | 1.05e6 | 1.12e6 | inactive
Jon99Fii + Jon99Cii + Jon99Ciii + 1 more | DRSC15298 | 1.44e6 | 1.48e6 | 1.01e6 | 1.10e6 | inactive
DhpD | DRSC12288 | 1.61e6 | 1.63e6 | 1.45e6 | 1.45e6 | inactive
CG1909 | DRSC17150 | 4.74e5 | – | 8.93e5 | – | inactive
CG42634 + CG42635 | DRSC02450 | 1.61e6 | 1.65e6 | 1.33e6 | 1.50e6 | inactive
CG10348 | DRSC02043 | 1.71e6 | 1.73e6 | 1.20e6 | 2.23e5 | inactive
Pka-C1 | DRSC03399 | 1.34e6 | 1.38e6 | 1.17e6 | 1.22e6 | inactive
CG7778 | DRSC03067 | 1.41e6 | 1.40e6 | 7.37e5 | 9.85e5 | inactive
aln | DRSC08240 | 1.56e6 | 1.39e6 | 9.77e5 | 1.26e6 | inactive
CG31778 | DRSC00283 | 1.37e6 | 1.47e6 | 1.21e6 | 1.18e6 | inactive
